{"source": "the supplement of paper PMC8728848", "binders": {"B1": {"name": "PX9961K-bvu-480-28-480 (Bacteroides vulgatus) (protein)", "chain": "NKIPTTMAFRTVTDVDNAVNGLYDLMSGSGYYGAAMFAYGDMKGDDMQSSEESGVCNTCYMFNHRPNSLNAGSLWGRPFYILREAWNILNAIAEGKIESGDEKKLNALKGETMAVIALCQFDLTRCFGYPYTKDKGASLGAPLIDHLVGTYENPPRSTVAQAYDFIIETLEEAVTLMSEEKNNGRMNKYAARALLARIYLYHDDNRKAFDLADQLIKDADTSGSYALYPHEKYVAAWSVEAKFGSESFFEIANSVDDTPGRDSWGYLLNWYGYQKGFVTQKYAEQMLADPGDVRGHLLEENKYAGKTVWWLYKLRGTDLKTAPLECNNVVLRLSEVYLIAAEAGCKLGGDAAVQGLGYLNEIVKRGNPDNEVTMADYTLDRVLDERSKELVGEGHRFFDLLRNGKTIVRKGGYHLPSVDEEVDWDFYKCVLPIPEDQFIFSPEMEQNPGYPKN"}}, "assay_in_all_cases": "glycan array binding signal (z-score within array); higher = stronger binding", "details_in_all_cases": "glycan notation: IUPAC condensed, linker removed", "key": {"[1]": {"biological_target": "Gal(b1-4)GlcNAc(b1-3)Gal(b1-4)GlcNAc(b1-3)Gal(b1-4)GlcNAc(b1-3)Gal(b1-4)GlcNAc(b1-2)Man(a1-3)[Gal(b1-4)GlcNAc(b1-3)Gal(b1-4)GlcNAc(b1-3)Gal(b1-4)GlcNAc(b1-3)Gal(b1-4)GlcNAc(b1-2)Man(a1-6)]Man(b1-4)GlcNAc(b1-4)[Fuc(a1-6)]GlcNAc", "summary_of_the_method": "(§1)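 Glycan array binding is given as a within-array Z-score, which can be read as non-binding when negative. The arrays, 3228 of them, came from the Consortium for Functional Glycomics database and were retained only where the protein sequence was available. Z-scores were averaged across arrays of the same protein sequence at different concentrations or buffers and across linkers.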"}, "[2]": {"biological_target": "Gal(b1-4)GlcNAc(b1-3)Gal(b1-4)GlcNAc(b1-3)Gal(b1-4)GlcNAc(b1-3)Gal(b1-4)GlcNAc(b1-2)[Gal(b1-4)GlcNAc(b1-3)Gal(b1-4)GlcNAc(b1-3)Gal(b1-4)GlcNAc(b1-3)Gal(b1-4)GlcNAc(b1-6)]Man(a1-6)[Gal(b1-4)GlcNAc(b1-3)Gal(b1-4)GlcNAc(b1-3)Gal(b1-4)GlcNAc(b1-3)Gal(b1-4)GlcNAc(b1-2)Man(a1-3)]Man(b1-4)GlcNAc(b1-4)[Fuc(a1-6)]GlcNAc", "summary_of_the_method": "as §1"}, "[3]": {"biological_target": "Gal(b1-4)GlcNAc(b1-3)Gal(b1-4)GlcNAc(b1-3)Gal(b1-4)GlcNAc(b1-3)Gal(b1-4)GlcNAc(b1-3)Gal(b1-4)GlcNAc(b1-2)Man(a1-3)[Gal(b1-4)GlcNAc(b1-3)Gal(b1-4)GlcNAc(b1-3)Gal(b1-4)GlcNAc(b1-3)Gal(b1-4)GlcNAc(b1-3)Gal(b1-4)GlcNAc(b1-2)Man(a1-6)]Man(b1-4)GlcNAc(b1-4)GlcNAc", "summary_of_the_method": "as §1"}, "[4]": {"biological_target": "Gal(b1-4)GlcNAc(b1-3)Gal(b1-4)GlcNAc(b1-3)Gal(b1-4)GlcNAc(b1-3)Gal(b1-4)GlcNAc(b1-3)Gal(b1-4)GlcNAc(b1-2)Man(a1-3)[Gal(b1-4)GlcNAc(b1-3)Gal(b1-4)GlcNAc(b1-3)Gal(b1-4)GlcNAc(b1-3)Gal(b1-4)GlcNAc(b1-3)Gal(b1-4)GlcNAc(b1-2)Man(a1-6)]Man(b1-4)GlcNAc(b1-4)[Fuc(a1-6)]GlcNAc", "summary_of_the_method": "as §1"}, "[5]": {"biological_target": "Gal(b1-4)GlcNAc(b1-3)Gal(b1-4)GlcNAc(b1-3)Gal(b1-4)GlcNAc(b1-3)Gal(b1-4)GlcNAc(b1-3)Gal(b1-4)GlcNAc(b1-2)[Gal(b1-4)GlcNAc(b1-3)Gal(b1-4)GlcNAc(b1-3)Gal(b1-4)GlcNAc(b1-3)Gal(b1-4)GlcNAc(b1-3)Gal(b1-4)GlcNAc(b1-6)]Man(a1-6)[Gal(b1-4)GlcNAc(b1-3)Gal(b1-4)GlcNAc(b1-3)Gal(b1-4)GlcNAc(b1-3)Gal(b1-4)GlcNAc(b1-3)Gal(b1-4)GlcNAc(b1-2)Man(a1-3)]Man(b1-4)GlcNAc(b1-4)[Fuc(a1-6)]GlcNAc", "summary_of_the_method": "as §1"}, "[6]": {"biological_target": "Gal(b1-4)GlcNAc(b1-3)Gal(b1-4)GlcNAc(b1-3)Gal(b1-4)GlcNAc(b1-3)Gal(b1-4)GlcNAc(b1-3)Gal(b1-4)GlcNAc(b1-3)Gal(b1-4)GlcNAc(b1-2)Man(a1-3)[Gal(b1-4)GlcNAc(b1-3)Gal(b1-4)GlcNAc(b1-3)Gal(b1-4)GlcNAc(b1-3)Gal(b1-4)GlcNAc(b1-3)Gal(b1-4)GlcNAc(b1-3)Gal(b1-4)GlcNAc(b1-2)Man(a1-6)]Man(b1-4)GlcNAc(b1-4)GlcNAc", "summary_of_the_method": "as §1"}, "[7]": {"biological_target": "Gal(b1-4)GlcNAc(b1-3)Gal(b1-4)GlcNAc(b1-3)GalNAc", "summary_of_the_method": "as §1"}, "[8]": {"biological_target": "Gal(b1-4)GlcNAc(b1-3)Gal(b1-4)GlcNAc(b1-3)[Gal(b1-4)GlcNAc(b1-3)Gal(b1-4)GlcNAc(b1-6)]GalNAc", "summary_of_the_method": "as §1"}, "[9]": {"biological_target": "Gal(b1-4)GlcNAc(b1-3)Gal(b1-4)GlcNAc(b1-6)[Gal(b1-3)]GalNAc", "summary_of_the_method": "as §1"}, "[10]": {"biological_target": "Gal(b1-4)GlcNAc(b1-3)Gal(b1-4)[Fuc(a1-3)]GlcNAc(b1-3)Gal(b1-4)[Fuc(a1-3)]GlcNAc", "summary_of_the_method": "as §1"}, "[11]": {"biological_target": "Gal(b1-4)GlcNAc(b1-3)GalNAc", "summary_of_the_method": "as §1"}, "[12]": {"biological_target": "Gal(b1-4)GlcNAc(b1-3)[Fuc(a1-3)GlcNAc(b1-6)]Gal(b1-4)Glc", "summary_of_the_method": "as §1"}, "[13]": {"biological_target": "Gal(b1-4)GlcNAc(b1-3)[Gal(b1-4)GlcNAc(b1-6)]Gal(b1-4)GlcNAc", "summary_of_the_method": "as §1"}, "[14]": {"biological_target": "Gal(b1-4)GlcNAc(b1-3)[GlcNAc(b1-6)]Gal(b1-4)GlcNAc", "summary_of_the_method": "as §1"}, "[15]": {"biological_target": "Gal(b1-4)GlcNAc(b1-6)Gal(b1-4)GlcNAc", "summary_of_the_method": "as §1"}, "[16]": {"biological_target": "Gal(b1-4)GlcNAc(b1-6)GalNAc", "summary_of_the_method": "as §1"}, "[17]": {"biological_target": "Gal(b1-4)GlcNAc(b1-6)[Gal(b1-3)]GalNAc", "summary_of_the_method": "as §1"}, "[18]": {"biological_target": "Gal(b1-4)GlcNAc(b1-6)[Gal(b1-4)GlcNAc(b1-3)]GalNAc", "summary_of_the_method": "as §1"}, "Gal(b1-4)GlcNAc6P": {"biological_target": "Gal(b1-4)GlcNAc6P", "summary_of_the_method": "as §1"}, "Gal(b1-6)Gal": {"biological_target": "Gal(b1-6)Gal", "summary_of_the_method": "as §1"}, "Gal3S(b1-3)GalNAc": {"biological_target": "Gal3S(b1-3)GalNAc", "summary_of_the_method": "as §1"}, "Gal3S(b1-3)GlcNAc": {"biological_target": "Gal3S(b1-3)GlcNAc", "summary_of_the_method": "as §1"}, "[19]": {"biological_target": "Gal3S(b1-3)[Fuc(a1-4)]GlcNAc", "summary_of_the_method": "as §1"}}, "note": "The list shows a part of the results.", "data": [{"binder": "B1", "values": [{"measurement": "glycan array binding signal (z-score)", "setting": "[1]", "result": 0.745}, {"measurement": "glycan array binding signal (z-score)", "setting": "[2]", "result": -0.165}, {"measurement": "glycan array binding signal (z-score)", "setting": "[3]", "result": -0.04}, {"measurement": "glycan array binding signal (z-score)", "setting": "[4]", "result": -0.219}, {"measurement": "glycan array binding signal (z-score)", "setting": "[5]", "result": 1.61}, {"measurement": "glycan array binding signal (z-score)", "setting": "[6]", "result": 1.2}, {"measurement": "glycan array binding signal (z-score)", "setting": "[7]", "result": 0.669}, {"measurement": "glycan array binding signal (z-score)", "setting": "[8]", "result": 0.292}, {"measurement": "glycan array binding signal (z-score)", "setting": "[9]", "result": -0.359}, {"measurement": "glycan array binding signal (z-score)", "setting": "[10]", "result": -0.616}, {"measurement": "glycan array binding signal (z-score)", "setting": "[11]", "result": -0.302}, {"measurement": "glycan array binding signal (z-score)", "setting": "[12]", "result": 0.569}, {"measurement": "glycan array binding signal (z-score)", "setting": "[13]", "result": 0.172}, {"measurement": "glycan array binding signal (z-score)", "setting": "[14]", "result": -0.506}, {"measurement": "glycan array binding signal (z-score)", "setting": "[15]", "result": 1.02}, {"measurement": "glycan array binding signal (z-score)", "setting": "[16]", "result": -0.045}, {"measurement": "glycan array binding signal (z-score)", "setting": "[17]", "result": -0.512}, {"measurement": "glycan array binding signal (z-score)", "setting": "[18]", "result": 0.145}, {"measurement": "glycan array binding signal (z-score)", "setting": "Gal(b1-4)GlcNAc6P", "result": -0.641}, {"measurement": "glycan array binding signal (z-score)", "setting": "Gal(b1-6)Gal", "result": -0.106}, {"measurement": "glycan array binding signal (z-score)", "setting": "Gal3S(b1-3)GalNAc", "result": -0.743}, {"measurement": "glycan array binding signal (z-score)", "setting": "Gal3S(b1-3)GlcNAc", "result": 0.009}, {"measurement": "glycan array binding signal (z-score)", "setting": "[19]", "result": -0.609}]}]}
